This continues a long series; more values of the same kind are listed elsewhere.
Tested on: brain activity (BOLD signal)
Assay: pharmaco-MRI (BOLD) neuroimaging study in conscious rats
Assay type: in vivo, rat
Details: 20-30 min post injection
Method: Test Substance, Reference Substance(s), and Vehicle: the compound of example 1 test substance for dose-dependent change in BOLD signal was provided by Syndesi along with the formula for the vehicle.
Subjects: Forty-eight male Sprague Dawley rats weighing ca 275-300 g were obtained from Charles River Laboratories (Wilmington, MA, USA). Rat were maintained on a 12:12 hour light:dark cycle with a lights on at 0700 hours and allowed access to food and water ad libitum. All rats were acquired and cared for in accordance with the guidelines published in the Guide for the Care and Use of Laboratory Animals (National Institutes of Health Publications No. 85-23, Revised 1985) and adhered to the National Institutes of Health and the American Association for Laboratory Animal Science guidelines.
Acclimation: To reduce the stress associated with head restraint, rats were acclimated to the restraining system (head holder and body tube) one week prior to their actual imaging session. The design of the restraining system (Animal Imaging Research, Holden MA, USA) included a padded head support obviating the need for ear bars helping to reduce animal discomfort while minimizing motion artifact. These acclimation sessions were run each day for 4-5 consecutive days. Rats were briefly anesthetized with 2-3% isoflurane while being secured into the head holder. The forepaws were secured with tape. When fully conscious, the imaging system is placed into a black opaque box “mock scanner” for 30 min with a tape-recording of the MRI pulse sequence to simulate the bore of the magnet and the imaging protocol. A significant decline in respiration, heart rate, motor movements, and plasma corticosterone has been measured when the first and last acclimation periods are compared (King et al., 2005). The reduction in autonomic and somatic measures of arousal and stress improve the signal resolution and quality of the images.
Image Acquisition: Animals were scanned at 300 MHz using a quadrature transmit/receive volume coil built into the rat head holder and restraining system for awake animal imaging (Animal Imaging Research, Holden, MA, USA). The design of the coil provided complete coverage of the brain from olfactory bulbs to brain stem with excellent B1 field homogeneity. Experiments were conducted using a Bruker Biospec 7.0 T/20-cm USR horizontal magnet (Bruker, Billerica, MA, USA) and a 20-G/cm magnetic field gradient insert (ID=12 cm) capable of a 120-μs rise time. At the beginning of each imaging session, a high-resolution anatomical data set was collected using the RARE pulse sequence [22 slice; 1.0 mm; field of view (FOV) 3.0 cm; matrix size 256×256; repetition time (TR) 2.5 s; echo time (TE) 12 ms; NEX 2; 3 min acquisition time]. Functional images were acquired using a multi-slice half-Fourier acquisition single-shot turbo spin echo (HASTE) pulse sequence. Bruker Paravision automatically finds the basic frequency, shims, power requirements for 90° and 180° pulses and sets the receiver gain. A single scanning session acquired 22 slices, 1.0 mm thick, every 6.0 s (TR), using an effective TE of 48 ms, FOV 3.0 cm, matrix size 96×96, NEX 1, and repeated 450 times for a total scanning time of 45 min. The in-plane pixel resolution was 312 μm2.
Data Processing: Data are coregistered to a mean functional image using SPM8's coregistrational code with the following parameters: Quality: 0.97, Smoothing: 0.35 mm, Separation: 0.5 mm. Gaussian smoothing was performed with a FWHM of 0.8 mm. Images were aligned and registered to the 3D rat brain atlas, segmented and labeled with 171 discrete anatomical regions. The alignment process was facilitated by an interactive graphic user interface. The registration process involved translation, rotation and scaling independently and in all three dimensions. Matrices that transformed each subject's anatomy were used to embed each slice within the atlas. […]

O=C1C[C@H](c2cc(F)c(F)c(F)c2)CN1Cn1ncnc1Cl [compound of example 1, (4R)-1-[(5-chloro-1H-1,2,4-triazol-1-yl)methyl]-4-(3,4,5-trifluorophenyl)pyrrolidin-2-one]
median number of positive voxels (positive BOLD volume of activation) (CA2, 0.1 mg/kg i.p.): 0
median number of positive voxels (positive BOLD volume of activation) (CA2, 0.3 mg/kg i.p.): 0
median number of positive voxels (positive BOLD volume of activation) (CA2, 1.0 mg/kg i.p.): 0
median number of positive voxels (positive BOLD volume of activation) (CA3 dorsal, 0.1 mg/kg i.p.): 4
median number of positive voxels (positive BOLD volume of activation) (CA3 dorsal, 0.3 mg/kg i.p.): 4
median number of positive voxels (positive BOLD volume of activation) (CA3 dorsal, 1.0 mg/kg i.p.): 0
median number of positive voxels (positive BOLD volume of activation) (auditory ctx, 0.1 mg/kg i.p.): 27
median number of positive voxels (positive BOLD volume of activation) (auditory ctx, 0.3 mg/kg i.p.): 8
median number of positive voxels (positive BOLD volume of activation) (auditory ctx, 1.0 mg/kg i.p.): 0
median number of positive voxels (positive BOLD volume of activation) (basal amygdaloid nucleus, 0.1 mg/kg i.p.): 22
median number of positive voxels (positive BOLD volume of activation) (basal amygdaloid nucleus, 0.3 mg/kg i.p.): 4
median number of positive voxels (positive BOLD volume of activation) (basal amygdaloid nucleus, 1.0 mg/kg i.p.): 0
median number of positive voxels (positive BOLD volume of activation) (bed nucleus stria terminalis, 0.1 mg/kg i.p.): 29
median number of positive voxels (positive BOLD volume of activation) (bed nucleus stria terminalis, 0.3 mg/kg i.p.): 13
median number of positive voxels (positive BOLD volume of activation) (bed nucleus stria terminalis, 1.0 mg/kg i.p.): 0
median number of positive voxels (positive BOLD volume of activation) (central gray, 0.1 mg/kg i.p.): 3
median number of positive voxels (positive BOLD volume of activation) (central gray, 0.3 mg/kg i.p.): 3
median number of positive voxels (positive BOLD volume of activation) (central gray, 1.0 mg/kg i.p.): 0
median number of positive voxels (positive BOLD volume of activation) (copula of the pyramis, 0.1 mg/kg i.p.): 0
median number of positive voxels (positive BOLD volume of activation) (copula of the pyramis, 0.3 mg/kg i.p.): 11
median number of positive voxels (positive BOLD volume of activation) (copula of the pyramis, 1.0 mg/kg i.p.): 0
median number of positive voxels (positive BOLD volume of activation) (dorsal lateral striatum, 0.1 mg/kg i.p.): 80
median number of positive voxels (positive BOLD volume of activation) (dorsal lateral striatum, 0.3 mg/kg i.p.): 12
median number of positive voxels (positive BOLD volume of activation) (dorsal lateral striatum, 1.0 mg/kg i.p.): 0
median number of positive voxels (positive BOLD volume of activation) (entorhinal ctx, 0.1 mg/kg i.p.): 134
median number of positive voxels (positive BOLD volume of activation) (entorhinal ctx, 0.3 mg/kg i.p.): 75
median number of positive voxels (positive BOLD volume of activation) (entorhinal ctx, 1.0 mg/kg i.p.): 5
median number of positive voxels (positive BOLD volume of activation) (extended amydala, 0.1 mg/kg i.p.): 8
median number of positive voxels (positive BOLD volume of activation) (extended amydala, 0.3 mg/kg i.p.): 2
median number of positive voxels (positive BOLD volume of activation) (extended amydala, 1.0 mg/kg i.p.): 0
median number of positive voxels (positive BOLD volume of activation) (lateral amygdaloid nucleus, 0.3 mg/kg i.p.): 0
median number of positive voxels (positive BOLD volume of activation) (lateral amygdaloid nucleus, 1.0 mg/kg i.p.): 0
median number of positive voxels (positive BOLD volume of activation) (lemniscal nucleus, 0.1 mg/kg i.p.): 12
median number of positive voxels (positive BOLD volume of activation) (lemniscal nucleus, 0.3 mg/kg i.p.): 10
median number of positive voxels (positive BOLD volume of activation) (lemniscal nucleus, 1.0 mg/kg i.p.): 1
median number of positive voxels (positive BOLD volume of activation) (magnocellular preoptic nucleus, 0.1 mg/kg i.p.): 1
median number of positive voxels (positive BOLD volume of activation) (medial amygdaloid nucleus, 0.1 mg/kg i.p.): 18
median number of positive voxels (positive BOLD volume of activation) (medial amygdaloid nucleus, 0.3 mg/kg i.p.): 13
median number of positive voxels (positive BOLD volume of activation) (medial amygdaloid nucleus, 1.0 mg/kg i.p.): 1
median number of positive voxels (positive BOLD volume of activation) (medial cerebellar nucleus fastigial, 0.1 mg/kg i.p.): 0
median number of positive voxels (positive BOLD volume of activation) (medial cerebellar nucleus fastigial, 0.3 mg/kg i.p.): 0
median number of positive voxels (positive BOLD volume of activation) (medial cerebellar nucleus fastigial, 1.0 mg/kg i.p.): 0
median number of positive voxels (positive BOLD volume of activation) (medial geniculate, 0.1 mg/kg i.p.): 3
median number of positive voxels (positive BOLD volume of activation) (medial geniculate, 0.3 mg/kg i.p.): 2
median number of positive voxels (positive BOLD volume of activation) (medial geniculate, 1.0 mg/kg i.p.): 0
median number of positive voxels (positive BOLD volume of activation) (medial orbital ctx, 0.1 mg/kg i.p.): 15
median number of positive voxels (positive BOLD volume of activation) (medial orbital ctx, 0.3 mg/kg i.p.): 12
median number of positive voxels (positive BOLD volume of activation) (medial orbital ctx, 1.0 mg/kg i.p.): 2
median number of positive voxels (positive BOLD volume of activation) (parafascicular thalamic nucleus, 0.1 mg/kg i.p.): 20
median number of positive voxels (positive BOLD volume of activation) (parafascicular thalamic nucleus, 0.3 mg/kg i.p.): 12
median number of positive voxels (positive BOLD volume of activation) (parafascicular thalamic nucleus, 1.0 mg/kg i.p.): 0
median number of positive voxels (positive BOLD volume of activation) (paraflocculus cerebellum, 0.1 mg/kg i.p.): 66
median number of positive voxels (positive BOLD volume of activation) (paraflocculus cerebellum, 0.3 mg/kg i.p.): 42
median number of positive voxels (positive BOLD volume of activation) (paraflocculus cerebellum, 1.0 mg/kg i.p.): 8
median number of positive voxels (positive BOLD volume of activation) (paraventricular nucleus (second entry, P 0.026), 0.1 mg/kg i.p.): 4
median number of positive voxels (positive BOLD volume of activation) (paraventricular nucleus (second entry, P 0.026), 0.3 mg/kg i.p.): 3
median number of positive voxels (positive BOLD volume of activation) (paraventricular nucleus (second entry, P 0.026), 1.0 mg/kg i.p.): 0
median number of positive voxels (positive BOLD volume of activation) (parvicellular reticular n., 0.1 mg/kg i.p.): 5
median number of positive voxels (positive BOLD volume of activation) (parvicellular reticular n., 0.3 mg/kg i.p.): 24
